From patent publication US20130171163A1, “Inhibition of LAR Phosphatase to Enhance Therapeutic Angiogenesis” (priority 2010, published 2013)
Results are given in words; binding and its absence hold for the method and conditions named. In cells and extracts the contact can be indirect. Some binding calls cover weakened binding; strength is not graded here. Where a sequence is shown, tags or fusion partners need not be part of it.

The chains behind the UniProt entries cited, without tags or fusion partners. Residues count along the entry.
UniProt P08069, residues 741-1367: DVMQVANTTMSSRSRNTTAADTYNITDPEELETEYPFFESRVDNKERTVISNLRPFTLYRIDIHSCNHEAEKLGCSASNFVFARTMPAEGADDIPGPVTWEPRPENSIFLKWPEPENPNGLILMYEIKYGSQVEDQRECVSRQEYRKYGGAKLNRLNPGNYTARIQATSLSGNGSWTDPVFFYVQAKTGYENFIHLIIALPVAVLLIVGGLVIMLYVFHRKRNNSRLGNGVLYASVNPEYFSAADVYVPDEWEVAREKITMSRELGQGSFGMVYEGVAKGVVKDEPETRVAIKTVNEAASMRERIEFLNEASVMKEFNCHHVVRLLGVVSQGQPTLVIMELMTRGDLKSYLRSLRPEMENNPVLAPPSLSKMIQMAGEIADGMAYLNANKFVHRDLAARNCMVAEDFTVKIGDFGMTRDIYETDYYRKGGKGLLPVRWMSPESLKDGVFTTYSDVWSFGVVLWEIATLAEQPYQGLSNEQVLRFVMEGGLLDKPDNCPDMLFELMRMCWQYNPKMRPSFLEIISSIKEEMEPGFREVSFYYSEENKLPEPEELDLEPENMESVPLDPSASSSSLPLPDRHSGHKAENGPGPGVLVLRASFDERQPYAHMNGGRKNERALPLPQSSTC

Target: insulin-like growth-factor-1 receptor beta subunit (IGF-1Rβ) (human) (UniProt P08069)
Assay: GST pulldown: GST-cLAR on glutathione-Sepharose beads incubated with HUVEC lysate, anti-IGF-1Rβ Western blot

B1: GST-cLAR fusion protein (protein, UniProt P10586 1285-1907, looked up, not shown: a dimerising Fc or GST)
chain: KRKRTHSPSSKDEQSIGLKDSLLAHSSDPVEMRRLNYQTPGMRDHPPIPITDLADNIERLKANDGLKFSQEYESIDPGQQFTWENSNLEVNKPKNRYANVIAYDHSRVILTSIDGVPGSDYINANYIDGYRKQNAYIATQGPLPETMGDFWRMVWEQRTATVVMMTRLEEKSRVKCDQYWPARGTETCGLIQVTLLDTVELATYTVRTFALHKSGSSEKRELRQFQFMAWPDHGVPEYPTPILAFLRRVKACNPLDAGPMVVHCSAGVGRTGCFIVIDAMLERMKHEKTVDIYGHVTCMRSQRNYMVQTEDQYVFIHEALLEAATCGHTEVPARNLYAHIQKLGQVPPGESVTAMELEFKLLASSKAHTSRFISANLPCNKFKNRLVNIMPYELTRVCLQPIRGVEGSDYINASFLDGYRQQKAYIATQGPLAESTEDFWRMLWEHNSTIIVMLTKLREMGREKCHQYWPAERSARYQYFVVDPMAEYNMPQYILREFKVTDARDGQSRTIRQFQFTDWPEQGVPKTGEGFIDFIGQVHKTKEQFGQDGPITVHCSAGVGRTGVFITLSIVLERMRYEGVVDMFQTVKTLRTQRPAMVQTEDQYQLCYRAALEYLGSFDHYAT
B1 was tested, and the binding was “binds”.
